Values quoted from earlier work, collected in patent US9233095B2, “Small molecule RNase inhibitors and methods of use” (University of Rochester, priority 2011, dated 2016).
Some results were stated once for a whole list of compounds, not compound by compound.

Tested on: biofilm-associated S. aureus strain UAMS-1
Conditions: 5× MIC, 24 hr treatment, Weiss et al. 2009; cited from earlier work

Structure (SMILES) | reduction of biofilm-associated bacteria [logs]
CCCCCCCCCC(=O)N[C@@H](Cc1c[nH]c2ccccc12)C(=O)N[C@H](CC(N)=O)C(=O)N[C@@H](CC(=O)O)C(=O)N[C@@H]1C(=O)NCC(=O)N[C@@H](CCCN)C(=O)N[C@@H](CC(=O)O)C(=O)N[C@H](C)C(=O)N[C@@H](CC(=O)O)C(=O)NCC(=O)N[C@H](CO)C(=O)N[C@@H]([C@H](C)CC(=O)O)C(=O)N[C@@H](CC(=O)c2ccccc2N)C(=O)O[C@@H]1C [daptomycin] | < 2
CN[C@H](CC(C)C)C(=O)N[C@H]1C(=O)N[C@@H](CC(N)=O)C(=O)N[C@H]2C(=O)N[C@H]3C(=O)N[C@H](C(=O)N[C@H](C(=O)O)c4cc(O)cc(O)c4-c4cc3ccc4O)[C@H](O)c3ccc(c(Cl)c3)Oc3cc2cc(c3O[C@@H]2O[C@H](CO)[C@@H](O)[C@H](O)[C@H]2O[C@H]2C[C@](C)(N)[C@H](O)[C@H](C)O2)Oc2ccc(cc2Cl)[C@H]1O [Vancomycin, vancomycin, reference compound] | < 2
